Laboratory results published in the supplement of paper PMC12823440, “Inhibitors supercharge kinase turnover through native proteolytic circuits” (Nature, 2025).
Some of the results follow. Hit calls seldom repeat between salt and free forms of one compound.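 In K562 cells expressing nanoluciferase-fused kinases, luminescence was recorded at 4 h intervals between 2 and 18 h, normalized as percent of control with DMSO at 100% and a positive control at 0%. A significant (2 sigma) signal drop marks a time point as decreased. The authors' rule for a hit is not shown and takes in more than the number of time points.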

By UniProt entry, the sequences of proteins in these tests, tags left out. Where a name states a change or a piece, a line headed by the entry shows the natural chain unless it says otherwise.
UniProt Q05397, whole entry, looked up: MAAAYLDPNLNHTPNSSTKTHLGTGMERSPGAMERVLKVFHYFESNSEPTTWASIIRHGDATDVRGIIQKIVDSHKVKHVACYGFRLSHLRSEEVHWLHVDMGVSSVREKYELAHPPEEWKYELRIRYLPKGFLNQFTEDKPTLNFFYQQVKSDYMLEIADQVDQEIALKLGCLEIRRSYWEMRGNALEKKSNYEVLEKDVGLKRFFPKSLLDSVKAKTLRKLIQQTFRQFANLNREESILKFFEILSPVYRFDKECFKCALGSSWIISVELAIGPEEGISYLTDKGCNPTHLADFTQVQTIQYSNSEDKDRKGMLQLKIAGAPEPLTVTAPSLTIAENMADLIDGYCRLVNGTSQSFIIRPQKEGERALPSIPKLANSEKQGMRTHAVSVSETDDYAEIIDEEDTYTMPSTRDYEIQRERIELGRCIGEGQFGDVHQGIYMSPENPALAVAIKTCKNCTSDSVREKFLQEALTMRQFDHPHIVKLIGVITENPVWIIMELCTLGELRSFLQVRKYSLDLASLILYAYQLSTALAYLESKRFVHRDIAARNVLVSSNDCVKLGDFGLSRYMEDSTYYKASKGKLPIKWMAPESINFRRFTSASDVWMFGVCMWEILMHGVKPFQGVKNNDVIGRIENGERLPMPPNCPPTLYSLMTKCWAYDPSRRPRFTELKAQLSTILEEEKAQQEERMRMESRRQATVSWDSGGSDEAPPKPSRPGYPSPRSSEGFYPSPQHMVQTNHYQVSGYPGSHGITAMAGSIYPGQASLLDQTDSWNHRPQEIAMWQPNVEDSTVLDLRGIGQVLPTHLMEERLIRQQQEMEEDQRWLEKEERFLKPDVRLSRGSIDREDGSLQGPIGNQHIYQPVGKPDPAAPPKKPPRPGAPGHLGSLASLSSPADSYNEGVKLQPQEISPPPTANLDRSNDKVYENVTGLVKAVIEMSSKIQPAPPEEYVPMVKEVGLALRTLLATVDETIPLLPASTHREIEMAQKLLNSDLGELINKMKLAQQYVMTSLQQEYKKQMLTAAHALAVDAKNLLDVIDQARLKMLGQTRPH
UniProt Q14289, whole entry, looked up: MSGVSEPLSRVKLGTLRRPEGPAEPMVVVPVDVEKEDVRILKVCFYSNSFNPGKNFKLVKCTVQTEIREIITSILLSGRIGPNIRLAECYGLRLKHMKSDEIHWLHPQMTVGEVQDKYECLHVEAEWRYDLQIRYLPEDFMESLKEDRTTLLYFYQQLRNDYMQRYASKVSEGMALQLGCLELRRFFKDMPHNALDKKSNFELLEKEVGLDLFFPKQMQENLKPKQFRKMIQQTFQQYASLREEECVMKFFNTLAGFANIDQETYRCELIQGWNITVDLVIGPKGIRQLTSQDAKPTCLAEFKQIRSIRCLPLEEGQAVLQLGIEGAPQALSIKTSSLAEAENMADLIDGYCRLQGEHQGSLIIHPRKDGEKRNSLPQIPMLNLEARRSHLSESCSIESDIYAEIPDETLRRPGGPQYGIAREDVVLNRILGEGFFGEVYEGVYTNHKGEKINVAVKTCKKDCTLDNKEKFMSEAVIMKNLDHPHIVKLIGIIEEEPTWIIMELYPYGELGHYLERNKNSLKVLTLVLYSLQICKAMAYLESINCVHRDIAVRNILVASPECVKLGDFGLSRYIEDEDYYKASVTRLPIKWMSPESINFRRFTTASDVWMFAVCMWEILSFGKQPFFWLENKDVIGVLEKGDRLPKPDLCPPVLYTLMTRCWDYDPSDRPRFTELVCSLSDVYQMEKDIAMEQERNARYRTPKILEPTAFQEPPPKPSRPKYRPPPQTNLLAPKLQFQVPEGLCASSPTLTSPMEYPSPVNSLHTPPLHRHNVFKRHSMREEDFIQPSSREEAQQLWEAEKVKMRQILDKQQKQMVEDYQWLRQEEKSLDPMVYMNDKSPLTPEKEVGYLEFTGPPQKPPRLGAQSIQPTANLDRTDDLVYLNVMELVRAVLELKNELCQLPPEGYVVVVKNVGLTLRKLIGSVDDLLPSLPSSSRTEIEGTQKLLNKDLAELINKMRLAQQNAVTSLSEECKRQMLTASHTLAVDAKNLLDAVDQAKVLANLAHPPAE
UniProt P07949, whole entry, looked up: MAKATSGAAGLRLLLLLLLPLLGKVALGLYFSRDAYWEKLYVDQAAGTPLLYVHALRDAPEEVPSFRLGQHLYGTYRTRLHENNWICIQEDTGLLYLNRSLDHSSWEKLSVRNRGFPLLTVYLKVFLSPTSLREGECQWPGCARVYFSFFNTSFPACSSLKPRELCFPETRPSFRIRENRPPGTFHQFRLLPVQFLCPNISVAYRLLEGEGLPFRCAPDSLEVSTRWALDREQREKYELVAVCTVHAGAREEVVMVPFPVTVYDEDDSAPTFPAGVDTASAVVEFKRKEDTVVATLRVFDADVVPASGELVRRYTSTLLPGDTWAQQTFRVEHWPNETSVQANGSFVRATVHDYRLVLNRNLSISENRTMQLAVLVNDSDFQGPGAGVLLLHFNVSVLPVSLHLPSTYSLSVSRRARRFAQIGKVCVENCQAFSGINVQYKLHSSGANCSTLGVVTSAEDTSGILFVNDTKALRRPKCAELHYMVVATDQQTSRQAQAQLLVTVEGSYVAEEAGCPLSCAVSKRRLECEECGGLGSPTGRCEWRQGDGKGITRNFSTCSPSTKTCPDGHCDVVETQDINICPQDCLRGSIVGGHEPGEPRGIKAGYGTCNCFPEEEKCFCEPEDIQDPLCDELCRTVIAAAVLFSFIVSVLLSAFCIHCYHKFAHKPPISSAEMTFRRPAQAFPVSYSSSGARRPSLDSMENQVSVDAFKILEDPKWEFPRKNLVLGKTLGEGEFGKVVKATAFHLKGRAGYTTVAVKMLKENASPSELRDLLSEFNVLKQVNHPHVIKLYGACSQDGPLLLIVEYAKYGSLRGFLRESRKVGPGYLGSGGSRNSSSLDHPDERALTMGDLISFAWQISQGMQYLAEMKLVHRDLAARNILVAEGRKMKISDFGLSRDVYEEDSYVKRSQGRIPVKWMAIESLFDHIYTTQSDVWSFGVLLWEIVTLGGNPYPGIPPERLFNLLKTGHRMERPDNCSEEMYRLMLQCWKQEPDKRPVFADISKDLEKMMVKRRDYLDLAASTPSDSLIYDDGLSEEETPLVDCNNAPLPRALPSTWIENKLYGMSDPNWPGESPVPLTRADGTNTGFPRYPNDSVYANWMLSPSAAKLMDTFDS
UniProt P07949, whole entry M918T, looked up: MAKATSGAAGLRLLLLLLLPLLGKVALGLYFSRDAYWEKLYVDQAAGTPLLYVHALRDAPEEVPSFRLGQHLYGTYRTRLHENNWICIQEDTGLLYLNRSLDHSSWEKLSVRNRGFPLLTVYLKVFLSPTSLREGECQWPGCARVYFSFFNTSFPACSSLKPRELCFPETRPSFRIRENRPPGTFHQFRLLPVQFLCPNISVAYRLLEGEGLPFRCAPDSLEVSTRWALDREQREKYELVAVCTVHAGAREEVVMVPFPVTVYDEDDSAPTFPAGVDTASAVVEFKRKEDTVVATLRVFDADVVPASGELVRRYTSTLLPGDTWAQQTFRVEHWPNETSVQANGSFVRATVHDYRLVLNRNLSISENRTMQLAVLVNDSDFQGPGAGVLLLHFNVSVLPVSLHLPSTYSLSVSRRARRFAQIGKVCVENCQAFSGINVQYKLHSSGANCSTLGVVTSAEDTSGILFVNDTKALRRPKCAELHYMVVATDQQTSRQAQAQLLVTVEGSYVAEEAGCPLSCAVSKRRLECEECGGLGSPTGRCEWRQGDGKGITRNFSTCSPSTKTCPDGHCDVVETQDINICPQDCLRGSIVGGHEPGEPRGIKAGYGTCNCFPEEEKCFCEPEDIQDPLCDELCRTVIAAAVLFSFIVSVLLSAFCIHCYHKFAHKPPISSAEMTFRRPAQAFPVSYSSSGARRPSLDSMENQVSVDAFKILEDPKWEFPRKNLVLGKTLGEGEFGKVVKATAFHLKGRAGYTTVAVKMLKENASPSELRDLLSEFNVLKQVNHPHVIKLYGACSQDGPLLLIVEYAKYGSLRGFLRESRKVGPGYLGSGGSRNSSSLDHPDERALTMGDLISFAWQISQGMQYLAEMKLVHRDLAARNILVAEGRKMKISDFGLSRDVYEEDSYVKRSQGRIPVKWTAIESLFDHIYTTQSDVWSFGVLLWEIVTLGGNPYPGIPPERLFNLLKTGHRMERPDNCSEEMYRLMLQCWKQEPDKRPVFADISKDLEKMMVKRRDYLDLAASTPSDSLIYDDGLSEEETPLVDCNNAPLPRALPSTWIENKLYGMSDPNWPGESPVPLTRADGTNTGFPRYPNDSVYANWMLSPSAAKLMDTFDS
UniProt Q9BRS2: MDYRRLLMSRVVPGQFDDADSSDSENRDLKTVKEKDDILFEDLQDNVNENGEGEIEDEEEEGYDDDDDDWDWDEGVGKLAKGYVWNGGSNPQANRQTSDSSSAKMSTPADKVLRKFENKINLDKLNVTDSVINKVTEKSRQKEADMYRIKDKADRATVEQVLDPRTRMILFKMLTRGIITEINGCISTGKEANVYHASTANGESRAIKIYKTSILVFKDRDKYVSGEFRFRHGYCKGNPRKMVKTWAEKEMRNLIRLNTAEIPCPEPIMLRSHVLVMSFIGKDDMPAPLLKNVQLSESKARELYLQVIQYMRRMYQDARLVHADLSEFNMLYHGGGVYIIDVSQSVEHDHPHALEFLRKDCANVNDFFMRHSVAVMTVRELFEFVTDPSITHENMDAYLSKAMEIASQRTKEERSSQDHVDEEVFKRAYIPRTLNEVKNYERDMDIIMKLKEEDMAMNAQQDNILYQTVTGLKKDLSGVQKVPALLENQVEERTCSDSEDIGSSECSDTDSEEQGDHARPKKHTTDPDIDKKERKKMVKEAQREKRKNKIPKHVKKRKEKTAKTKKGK
UniProt Q13546: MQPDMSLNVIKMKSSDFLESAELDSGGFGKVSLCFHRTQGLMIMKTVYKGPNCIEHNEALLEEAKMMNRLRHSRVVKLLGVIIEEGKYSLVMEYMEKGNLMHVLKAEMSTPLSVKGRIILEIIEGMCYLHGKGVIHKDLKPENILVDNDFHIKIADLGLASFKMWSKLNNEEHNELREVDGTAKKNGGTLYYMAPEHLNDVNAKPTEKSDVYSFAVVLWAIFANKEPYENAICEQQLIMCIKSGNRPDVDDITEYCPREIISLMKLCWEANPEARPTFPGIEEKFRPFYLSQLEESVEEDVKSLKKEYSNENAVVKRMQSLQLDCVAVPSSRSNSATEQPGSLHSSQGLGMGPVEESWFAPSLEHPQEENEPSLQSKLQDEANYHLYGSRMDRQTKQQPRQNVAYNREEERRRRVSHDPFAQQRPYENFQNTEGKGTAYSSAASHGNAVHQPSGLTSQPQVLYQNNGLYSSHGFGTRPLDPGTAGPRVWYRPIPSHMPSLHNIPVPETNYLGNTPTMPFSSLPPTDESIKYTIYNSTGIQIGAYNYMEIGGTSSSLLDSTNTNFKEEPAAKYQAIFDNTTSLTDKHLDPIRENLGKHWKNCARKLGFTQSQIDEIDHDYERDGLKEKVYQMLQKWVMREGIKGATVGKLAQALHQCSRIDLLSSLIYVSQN

Tests used:
Test in all cases: number of time points (of 5) at which kinase-Nluc abundance scored as decreased, DMSO-normalised (count); higher = more persistent destabilization
Conditions in all cases: K562; 2-18 h
[1] = target: PRKCA (UniProt P17252)
[2] = target: PTK2 (UniProt Q05397)
[3] = target: PTK2B (UniProt Q14289)
[4] = target: RAF1 (UniProt P04049)
[5] = target: RAF1_S257L (clone: RAF1_mut) (UniProt P04049)
[6] = target: RET (UniProt P07949)
[7] = target: RET_M918T (clone: RET_mut) (UniProt P07949)
[8] = target: RIOK1 (UniProt Q9BRS2)
[9] = target: RIPK1 (UniProt Q13546)
[10] = target: RIPK2 (UniProt O43353)

Row | SMILES | number of time points [1] | number of time points [2] | number of time points [3] | number of time points [4] | number of time points [5] | number of time points [6] | number of time points [7] | number of time points [8] | number of time points [9] | number of time points [10]
1 | O=C(Nc1ccccc1C(=O)NC1CCCCNC1=O)c1cc2ccccc2s1 (stereo unspecified) (10 µM) | 0 | 0 | 0 | 0 | 0 | 0 | 0 | 0 | 0 | 0
2 | CC(C)(C)S(=O)(=O)c1cc2c(Nc3ccc4scnc4c3)ncnc2cc1OCCOP(=O)(O)O (2 µM) | 0 | 0 | 0 | 0 | 0 | 0 | 0 | 0 | 0 | 4
3 | COc1cc2ncnc(Nc3cc(Br)c(O)c(Br)c3)c2cc1OC (2.5 µM) | 0 | 0 | 0 | 0 | 0 | 0 | 0 | 0 |  | 0
4 | NC(=O)c1c(NC(=O)C2CC2)sc2c1CCCC2 (10 µM) | 0 | 0 | 0 | 0 | 0 | 0 | 0 | 0 | 0 | 0
5 | Cc1ncc(-c2cc(F)c(O)c(F)c2)cc1-c1cc(F)c(O)c(F)c1 (10 µM) | 0 | 0 | 0 | 0 | 0 | 0 | 0 | 0 | 0 | 0
6 | O=C(CCl)c1c[nH]c2ccccc12 (2.5 µM) | 0 | 0 | 0 | 0 | 0 | 0 | 0 | 0 | 0 | 0
7 | O=CN1CCN(c2ccc(C=C3C(=O)Nc4ccccc43)cc2)CC1 (10 µM) | 0 | 0 | 0 | 0 | 0 | 0 | 0 | 0 | 0 | 0
8 | Nc1ccc(-c2nc3ccc(-c4nc5ccc(N)cc5[nH]4)cc3[nH]2)cc1 (10 µM) | 0 | 0 | 0 | 0 | 0 | 0 | 0 | 0 | 0 | 0
9 | COC(=O)N1CCN(C2CCC(Nc3nc(Nc4cnn(C)c4)nc4ccc(CC#N)nc34)CC2)CC1 (stereo unspecified) (10 µM) | 0 | 0 | 0 | 2 | 0 | 0 | 0 | 0 | 0 | 0
10 | Cc1cnc(Cl)nc1-c1ccc(N(Cc2ccc(CNC(=O)C(F)F)cc2)C(=O)c2ccc(O)cc2O)cc1 (10 µM) | 0 | 0 | 0 | 0 | 0 | 0 | 0 | 0 | 0 | 0
11 | CS(=O)(=O)c1cccc(CNc2nc(Nc3ccc4c(c3)CCC(=O)N4)ncc2C(F)(F)F)c1 (10 µM) | 0 |  | 0 | 0 | 0 | 0 | 0 | 0 | 0 | 0
12 | NC(=O)c1sc2c([N+](=O)[O-])cc(C(F)(F)F)cc2[n+]1[O-] [Cyclapolin 9] (10 µM) | 0 | 0 | 0 | 0 | 0 | 0 | 0 | 0 | 0 | 0
13 | Nc1nccc(Oc2ccc3c(C(=O)Nc4cccc(C(F)(F)F)c4)cccc3c2)n1 (10 µM) | 0 | 0 | 1 | 0 | 0 | 0 | 0 | 0 | 0 | 0
14 | CC(C)c1cc2c(c(O)c1O)[C@@]13CCCC(C)(C)[C@@H]1C[C@@H]2OC3=O [Carnosol] (2.5 µM) | 0 | 0 | 0 | 0 | 0 | 0 | 0 | 0 | 0 | 0
15 | CN1C(=O)N[C@@H](Cc2c[nH]c3c(Cl)cccc23)C1=O [Necrostatin 2 (S enantiomer)] (10 µM) | 0 | 0 | 0 | 0 | 0 | 0 | 0 | 0 | 0 | 0
16 | N#Cc1cc(-c2ccnc(Nc3ccc(N4CCOCC4)cc3)n2)ccc1OC1CCOCC1 (10 µM) | 0 | 3 | 0 | 0 | 0 | 0 | 0 | 0 | 0 | 0
17 | O=[N+]([O-])c1ccc(-c2nc(-c3ccc(F)cc3)c(-c3ccncc3)[nH]2)cc1 (10 µM) | 0 |  | 0 | 0 | 0 | 0 | 0 | 0 | 0 | 0

Row | SMILES | number of time points [1] | number of time points [2] | number of time points [3] | number of time points [4] | number of time points [5] | number of time points [6] | number of time points [7] | number of time points [8] | number of time points [9] | number of time points [10]
18 | CCOc1cc(=O)[nH]cc1-c1ccc(CC(=O)Nc2cc(C(C)(C)C(F)(F)F)on2)c(F)c1 (10 µM) | 0 | 0 | 0 | 0 | 0 |  |  | 0 | 0 | 0
19 | C[C@H](Nc1cc2c(-c3ccc4c(c3)OCO4)noc2cn1)c1ccccc1 (10 µM) | 0 | 0 | 0 | 0 | 0 | 0 | 0 | 0 | 0 | 0
20 | Cc1ncsc1-c1ccc(CNC(=O)[C@@H]2C[C@@H](O)CN2C(=O)[C@@H](NC(=O)COCCOc2ccc(-c3cc(Nc4ccc(OC(F)(F)F)cc4)ncn3)cc2)C(C)(C)C)cc1 (2.5 µM) | 0 | 1 | 1 | 2 | 3 | 1 | 1 | 2 | 3 | 2
21 | N#Cc1cc(N2CCC(C(=O)N3N=CC[C@H]3c3cc(F)cc(F)c3)CC2)ncn1 (10 µM) | 0 | 0 | 0 | 0 | 0 | 0 | 0 | 0 |  | 0
22 | CN1C(=O)[C@@H](NC(=O)c2cc(Cc3ccccc3)on2)COc2ccccc21 (10 µM) | 0 | 0 | 0 | 0 | 0 | 0 | 0 | 0 |  | 0
23 | NC(=O)c1ccccc1Nc1ccnc(Nc2cccc(O)c2)n1 (10 µM) | 0 | 1 | 0 | 3 | 4 | 3 | 1 | 2 | 3 | 1
24 | O=C(Nc1ccc(Cl)cc1)C1CN(C(=O)c2cccc(-c3ccco3)c2)CC(F)(F)C1 (stereo unspecified) (2.5 µM) | 0 | 0 | 0 | 0 | 0 | 0 | 0 | 0 | 0 | 0
25 | Fc1ccc(Cl)cc1-c1nc(Nc2ccncc2)c2nccnc2n1 (10 µM) | 0 | 0 |  | 0 | 0 | 0 | 0 | 0 | 0 | 0
26 | Cc1cc2c(F)c(Oc3ncnn4cc(OC[C@@H](C)OC(=O)[C@H](C)N)c(C)c34)ccc2[nH]1 [Brivanib (alaninate)] (10 µM) | 0 | 0 | 0 | 0 | 0 | 0 | 0 | 0 | 0 | 0
27 | CCc1cc(Nc2nccc(-c3c(-c4ccc(OC)c(C(=O)Nc5c(F)cccc5F)c4)nc4ccccn34)n2)c(OC)cc1N1CCC(N2CCN(S(C)(=O)=O)CC2)CC1 (2.5 µM) | 0 | 0 |  | 0 | 0 | 0 | 0 | 0 | 0 | 0
28 | CO/N=C1/C(c2c(O)[nH]c3cc(Cl)c(Cl)cc23)=Nc2ccccc21 (10 µM) | 0 | 0 | 0 | 0 | 0 | 0 | 0 | 0 | 0 | 0
29 | O=c1cc(N2CCOCC2)oc2c(-c3cccc4c3sc3ccccc34)cccc12 (10 µM) | 0 | 0 | 0 | 0 | 0 | 0 | 0 | 0 | 0 | 0
30 | COc1cc2c(cc1OC)[C@@H]1C(=O)c3ccc4c(c3O[C@@H]1CO2)C=CC(C)(C)O4 [Deguelin] (10 µM) | 0 | 0 | 0 | 0 | 0 | 0 | 0 | 0 | 0 | 0
31 | Nc1nc(Nc2ccc3c(c2)CC[C@@H](N2CCCC2)CC3)nn1-c1cc2c(nn1)-c1ccccc1CCC2 [Bemcentinib] (2.5 µM) | 0 | 0 | 0 | 0 | 0 | 0 | 0 | 0 | 0 | 0
32 | CN(C)CCOc1cc(-c2cn[nH]c2)ccc1NC(=O)C1COc2ccccc2O1 (stereo unspecified) (10 µM) | 0 | 0 | 0 | 0 | 0 | 0 | 0 | 0 | 0 | 0
33 | O=C(NC[C@H](O)CO)c1ccncc1Nc1ccc(I)cc1F [Pimasertib] (10 µM) | 0 | 1 | 1 | 2 | 1 | 1 | 0 | 1 | 2 | 1
34 | CN(C)C(=O)c1cc2cnc(Nc3ccc(N4CCN(CCCCNC(=O)COc5cccc6c5C(=O)N(C5CCC(=O)NC5=O)C6=O)CC4)cn3)nc2n1C1CCCC1 (stereo unspecified) (10 µM) | 0 | 0 | 0 | 0 | 0 | 0 | 0 | 0 | 0 | 0

Part of the list above in order of count of non-hydrogen atoms, ascending:
Row | SMILES | number of time points [1] | number of time points [2] | number of time points [3] | number of time points [4] | number of time points [5] | number of time points [6] | number of time points [7] | number of time points [8] | number of time points [9] | number of time points [10]
8 | Nc1ccc(-c2nc3ccc(-c4nc5ccc(N)cc5[nH]4)cc3[nH]2)cc1 (10 µM) | 0 | 0 | 0 | 0 | 0 | 0 | 0 | 0 | 0 | 0
17 | O=[N+]([O-])c1ccc(-c2nc(-c3ccc(F)cc3)c(-c3ccncc3)[nH]2)cc1 (10 µM) | 0 |  | 0 | 0 | 0 | 0 | 0 | 0 | 0 | 0
22 | CN1C(=O)[C@@H](NC(=O)c2cc(Cc3ccccc3)on2)COc2ccccc21 (10 µM) | 0 | 0 | 0 | 0 | 0 | 0 | 0 | 0 |  | 0
30 | COc1cc2c(cc1OC)[C@@H]1C(=O)c3ccc4c(c3O[C@@H]1CO2)C=CC(C)(C)O4 [Deguelin] (10 µM) | 0 | 0 | 0 | 0 | 0 | 0 | 0 | 0 | 0 | 0
29 | O=c1cc(N2CCOCC2)oc2c(-c3cccc4c3sc3ccccc34)cccc12 (10 µM) | 0 | 0 | 0 | 0 | 0 | 0 | 0 | 0 | 0 | 0
16 | N#Cc1cc(-c2ccnc(Nc3ccc(N4CCOCC4)cc3)n2)ccc1OC1CCOCC1 (10 µM) | 0 | 3 | 0 | 0 | 0 | 0 | 0 | 0 | 0 | 0
9 | COC(=O)N1CCN(C2CCC(Nc3nc(Nc4cnn(C)c4)nc4ccc(CC#N)nc34)CC2)CC1 (stereo unspecified) (10 µM) | 0 | 0 | 0 | 2 | 0 | 0 | 0 | 0 | 0 | 0
10 | Cc1cnc(Cl)nc1-c1ccc(N(Cc2ccc(CNC(=O)C(F)F)cc2)C(=O)c2ccc(O)cc2O)cc1 (10 µM) | 0 | 0 | 0 | 0 | 0 | 0 | 0 | 0 | 0 | 0
34 | CN(C)C(=O)c1cc2cnc(Nc3ccc(N4CCN(CCCCNC(=O)COc5cccc6c5C(=O)N(C5CCC(=O)NC5=O)C6=O)CC4)cn3)nc2n1C1CCCC1 (stereo unspecified) (10 µM) | 0 | 0 | 0 | 0 | 0 | 0 | 0 | 0 | 0 | 0
27 | CCc1cc(Nc2nccc(-c3c(-c4ccc(OC)c(C(=O)Nc5c(F)cccc5F)c4)nc4ccccn34)n2)c(OC)cc1N1CCC(N2CCN(S(C)(=O)=O)CC2)CC1 (2.5 µM) | 0 | 0 |  | 0 | 0 | 0 | 0 | 0 | 0 | 0
